The nature of the data set: peptide synthesis. As to conditions: conjugation step.

Some peptides are written in HELM: one residue between dots, names in brackets for other building blocks, links after the first $.

“PEPTIDE1{[ac].F.R.R.F.[deBocDTX]}$$$$V2.0” had a conjugation yield of 35%. In addition, the “final HPLC purity” value (HPLC) is “approximately 98%”.
